Source: patent US20090074768A1
Results are given in words; binding and its absence hold for the method and conditions named. Some binding calls cover weakened binding; strength is not graded here.

Protein sequences, listed by entry. Tags and fused reporters are not part of them. Lines headed by an entry give the natural chain unless they say otherwise; changes in a name come on top.
UniProt P27037: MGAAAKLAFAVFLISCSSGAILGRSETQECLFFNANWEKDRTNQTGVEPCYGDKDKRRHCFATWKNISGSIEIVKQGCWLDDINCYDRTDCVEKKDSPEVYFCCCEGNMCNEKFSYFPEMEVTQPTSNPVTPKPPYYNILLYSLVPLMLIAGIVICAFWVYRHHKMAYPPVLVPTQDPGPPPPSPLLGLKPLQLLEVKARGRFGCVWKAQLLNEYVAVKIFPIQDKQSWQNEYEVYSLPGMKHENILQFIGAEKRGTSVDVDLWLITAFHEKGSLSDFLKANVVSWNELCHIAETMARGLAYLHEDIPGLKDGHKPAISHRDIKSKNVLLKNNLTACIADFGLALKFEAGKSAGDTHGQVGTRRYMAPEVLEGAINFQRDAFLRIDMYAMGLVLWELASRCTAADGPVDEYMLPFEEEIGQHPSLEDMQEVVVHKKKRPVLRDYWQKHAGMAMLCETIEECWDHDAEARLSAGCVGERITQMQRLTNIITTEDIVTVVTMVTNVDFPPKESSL

Biological target: T1, GDF-11 (UniProt O95390)
T1 sequence (looked up): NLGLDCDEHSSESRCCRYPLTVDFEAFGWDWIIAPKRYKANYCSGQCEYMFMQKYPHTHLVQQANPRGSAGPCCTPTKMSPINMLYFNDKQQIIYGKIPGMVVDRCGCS
Assay: SPR (Biacore), ligand immobilized on CM5 chip

binding: binds
Substance: ActRIIa-mFc (from UniProt P27037 21-135) (Fc fusion)
